Source: PubChem BioAssay AID1159506 (NCATS, 2015).

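Luminescence from an EWS-FLI1 target-promoter (NR0B1) reporter, set against a CMV-promoter reporter, two days after silencing single genes in TC32 Ewing sarcoma cells.
Each siRNA was applied at 20 nM.
A z-score of the log NR0B1-over-CMV signal, less the median of siRNAs with the same seed; more negative means a stronger specific loss of the NR0B1 reporter.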

The strongest results of the screen are mostly left out here.
Sequences are the guide (antisense) strand, without overhang.

strand,gene,seed-corrected z-score
UUGCCGUUCACGUCGUAGC,PCSK6,-0.6666
UGAUCUGCUUGAUUGCUCG,EIF4A3,-1.499
UACCUUAUACAUCAAACCC,LOC645967,-0.5066
UGAACUCCCAACCCUUAGC,MAEL,0.3767
UGUGGGUCGGCAUUUAUCU,CDK5R1,-0.08765
AGAGCAUUUAUUCCGUCCC,NDUFA13,-0.6794
UUCGUGUGCACGGUUGCAG,GJD3,-0.7472
UCUUUCUGCAGUUAAACUG,FAM155A,-0.9734
UUCUGUGACAGUCUAUUCU,C6orf106,-0.5454
UAAGGCGUGACACUGCUAC,BRD2,0.3293
UUGGGACACGUAUCUGUAC,UCN3,-0.1621
UCACAUUACAGUUAUAAUC,REG3A,0.1331
UAGCCGAAAUAGUAUAUGC,HEATR6,0.2845
AACUGAACACGGGAGAACG,BRAT1,0.1218
UCGGUACUCAUUUCCCUUC,TRIM68,-0.2947
UGUUCCCGCACUUUCACCG,ATOH1,-0.2135
AUAGAGUACAACUUCAGUG,CTR9,-0.1438
UUUCGUCAUACGUAGACAG,SPATA6,-0.04609
ACGCGGAUAAGUUCAACCG,NELFCD,-0.007529
UAGCGUUGGACCAGUCUCC,SYCN,0.785
UUUUCGCUCAUACUUUCUC,ST13,0.1079
UCACGGAUCUUGUUGUUGU,CHAD,-0.05299
UCAGGAACUCGUACUCCUC,ARHGDIA,-1.005
AAGGAUGACAGUUAGCUUG,FAM205BP,1.365
AAACGGGAACUGGAUAGUG,LOC440386,0.5172
UAGGAUGUAUUUGCUGUCC,HUS1B,-0.4967
UUUCAUUCCAUCUAUCGGC,CER1,-0.1522
UGAUGAUCAACCGAUAAGC,SLC6A4,-0.8839
UUCGGACAAUGUUACAUCC,TRMT1L,0.9205
UUCAAAUCCGCUGAUAUCU,VCPKMT,0.5251
UAAUCUUCCUUCGAAUGUG,RPL26P32,-1.104
ACCCGUUCAAGGAACGUGC,LRRN4,0.2984
ACAGGUACCUGCAUGUACU,DUSP18,1.121
UAUCUCCUUAGCAUCGGCC,POLR3H,0.3852
UAAUAACCUUGUCAGUUCC,WDFY2,0.16
AUGUAUUUCACCUUGCUCC,NTHL1,0.3962
UAUAGUUACUCUACUAAUC,LMNTD1,0.5936
UUGGUAUCCUGAUAUGACC,PCSK5,-0.6261
UAUUGUAAGACGCACAAGC,FAM188B2,0.659
UUAGUGUGCUCUGGAAUUC,TXLNB,0.1805
AGACAUUUUCCAGUUAUCU,SLC22A18AS,-0.6461
UAAACACCAGGAAAGUUUG,TMPRSS7,0.9252
UUCUCAACCACAACAACUG,STX2,1.189
UGAGUUCAAAAAGUGUUCC,SKP1,-0.7139
UAUAACCCAACGAUAGGUC,ASRGL1,-0.27
AAGGGCAUCAAUAAAGGCA,URAD,-1.558
UCAUUGAUGAGAAUGUCCG,HTR3A,2.423
UUCAAAAUCCGACAAACUC,SNX29,0.3012
AUAGUAACCAUCAAUACAC,LAMB4,0.6704
UAUUGUCCAUGCAAACUCC,WISP1,-0.8477
UGAUGAUCACCUGUGAGCC,ZNF653,-1.126
UAUUGCCUCUGAUCACUCC,LENG1,-0.2702
UUGCGUGACAGCUCCUUCC,MED26,-1.81
UUUUUGUACCUCAAGAAGU,CHCHD7,0.3914
UCUUAUUCGAUGUUUAGUG,ZNF616,0.2914
UGAAUGACCGUGAAAGGCU,HELZ2,0.2653
UAUGAAUCAAAGCAAAGUC,PRPS1L1,-0.07709
UCCAAAACCAUUGAAGGUG,LOC728805,-0.1222
UUCGAUACAUUUGCACAGC,SFI1,-0.5289
UCCAUCUUCAAUAAUCUCC,DNTT,1.489
UUCUCGUUGGAGUAGUCGG,MASP2,0.8132
UCAAGGAUAAAAGGACUCC,OR2A4,0.05101

Some entries from above, unchanged:

| strand | gene | seed-corrected z-score |
|---|---|---|
| `UUGGUAUCCUGAUAUGACC` | PCSK5 | -0.6261 |
| `UCUUUCUGCAGUUAAACUG` | FAM155A | -0.9734 |
| `UAAGGCGUGACACUGCUAC` | BRD2 | 0.3293 |
| `UAAACACCAGGAAAGUUUG` | TMPRSS7 | 0.9252 |